Some of the results follow.

Chains of the proteins cited; added tags and fusions are not shown.
UniProt Q0JBA9, entry or part of it: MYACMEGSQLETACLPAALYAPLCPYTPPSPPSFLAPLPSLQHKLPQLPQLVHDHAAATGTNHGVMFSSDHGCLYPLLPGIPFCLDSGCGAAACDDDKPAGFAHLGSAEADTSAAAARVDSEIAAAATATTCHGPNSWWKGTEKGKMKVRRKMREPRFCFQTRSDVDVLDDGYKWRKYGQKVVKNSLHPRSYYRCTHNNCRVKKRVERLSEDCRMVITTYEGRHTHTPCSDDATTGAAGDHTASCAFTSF

This experiment concerns the target OsWRKY34 (Oryza sativa, UniProt Q0JBA9 1-250). The experiment is described as follows: protein-binding microarray (RPBM); PBS, 2% BSA, 51.3 ng/ul salmon testes DNA, 50 uM zinc acetate, 200 nM TF, 25 C, 1 h; high values mean tight binding. The conditions noted are these: protein: recombinant; tags: N-terminal polyhistidine and DsRed monomer fusion (pET32a); label: CyDye5-dUTP incorporated in the synthesized complementary strand; 3' TTTTT single-stranded linker to array surface; dsDNA, one strand shown. The procedure, abridged: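 Using Ni–NTA, transcription factors fused N-terminally to polyhistidine and DsRed were purified after expression in E. coli BL21-CodonPlus. These were incubated at 200 nM with a blocked, double-stranded custom Agilent array for 1 h at 25 °C in a buffer containing 50 µM zinc acetate, and the array was washed. The binding signal is per-feature fluorescence intensity (arbitrary units) on an Axon 4000B scanner.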
As for “CTTATTCCGTTGTCATGGGCTCATTGTAACTGGTTGGCCCCGGAGTCACCTAGTGCAG”, the binding signal was 9240 fluorescence intensity (a.u.).

For “ACCTCTGTTTAATCCCCTTTCCGCGAATTTATTTACATTTCGGAGTCACCTAGTGCAG”, the binding signal was 9930 fluorescence intensity (a.u.).

Take “CGCCCAACTTACTTCGCGTCTACTTCAATTCGCACCGCCACGGAGTCACCTAGTGCAG”: the binding signal is 12200 fluorescence intensity (a.u.).

“TCTGCTCGTTGCTCGTTGATTCGCTCGCTTTCTGTCCCTGCGGAGTCACCTAGTGCAG”: the binding signal was 13200 fluorescence intensity (a.u.).

On to “TAATATTTCTTGCGGTGGGTTGGATTGATATCGATTGTTTCGGAGTCACCTAGTGCAG”, for which the binding signal is 17600 fluorescence intensity (a.u.).

For the sequence “CATTGACTGACGACACAATCCATTCATCTTACTACATACTCGGAGTCACCTAGTGCAG”, the binding signal was 8050 fluorescence intensity (a.u.).

As to “CGGACGGCCCACGTTACACCTGCCATACTCGTCCAGTCTTCGGAGTCACCTAGTGCAG”, the binding signal is 9560 fluorescence intensity (a.u.).

With “TGTGCCAGTTGTTAGTCATGATCTTCCTGATGTGTCATCCCGGAGTCACCTAGTGCAG”, the binding signal is 8080 fluorescence intensity (a.u.).

Turning to “TGAGATAAATTTCGAACACTAAGGTGGTGTTTGAGAGGGGCGGAGTCACCTAGTGCAG”, the binding signal is 8210 fluorescence intensity (a.u.).

Take “CAGCACAGCCTAGCCCAGCCCATTCAGCAACACACACAAACGGAGTCACCTAGTGCAG”: the binding signal is 10500 fluorescence intensity (a.u.).

For the sequence “GTTAGCTTAGCAGTAACTCGTTTGTTTTTGGTACATTCATCGGAGTCACCTAGTGCAG”, the binding signal was 8060 fluorescence intensity (a.u.).

In the case of “TAAATGTTACTCACAATACACACTTCTCGTGTTGTCTATCCGGAGTCACCTAGTGCAG”, the binding signal was 8360 fluorescence intensity (a.u.).

For “ATACCGCTTGAGTTCATTTTGCCCCTGTTGACTGTTGTTCCGGAGTCACCTAGTGCAG”, the binding signal was 9710 fluorescence intensity (a.u.).

Take “TACTGCCAAGGGATCTCGTTTGTCCGGTTTTCGTAAGTTGCGGAGTCACCTAGTGCAG”: the binding signal was 8320 fluorescence intensity (a.u.).

As for “AGTACACACCATTTGACATCCTGATTATGTATAGTAATTTCGGAGTCACCTAGTGCAG”, the binding signal was 8350 fluorescence intensity (a.u.).

Take “ATGTTTGCCACCGTCGCCCTACCGCTGCTAGCTGCCGCCCCGGAGTCACCTAGTGCAG”: the binding signal was 11400 fluorescence intensity (a.u.).

Take “CGTCGCTTCGGTCTCGACTCCTCGTCTCCTCGGCCGCCGCCGGAGTCACCTAGTGCAG”: the binding signal was 8150 fluorescence intensity (a.u.).

With “CTCCAGTGCCTCGATTGACTCCAGTATTAATGCTGCGAAGCGGAGTCACCTAGTGCAG”, the binding signal is 9380 fluorescence intensity (a.u.).

Regarding “CCCTTTCGGTTTTAATTTTTCGGACCGTTTTGTACATACACGGAGTCACCTAGTGCAG”, the binding signal was 10300 fluorescence intensity (a.u.).

On to “GAAAGGCCCTGCTGCGTGACCCGGCAACTCTGGTAGAACCCGGAGTCACCTAGTGCAG”, for which the binding signal was 8070 fluorescence intensity (a.u.).

On to “TCTTCCACTTTCGCGTGATCTCATATTCTTGCAAACTTTACGGAGTCACCTAGTGCAG”, for which the binding signal was 13800 fluorescence intensity (a.u.).

As to “TCACACTGCTCCACAGCCATCCATCCCTCCGCCGCCGCCGCGGAGTCACCTAGTGCAG”, the binding signal is 9780 fluorescence intensity (a.u.).

Take “CTACCAATCTGTAGCCCGCTGTTCTTTTCTCTCCTTATTTCGGAGTCACCTAGTGCAG”: the binding signal is 12200 fluorescence intensity (a.u.).

Take “TTGGTTCGGTTTTTTCTGCCCGCGTCGGTTTTTGTCTCACCGGAGTCACCTAGTGCAG”: the binding signal is 20100 fluorescence intensity (a.u.).

Regarding “ATTTTTTGGGGCCACTCCTTTTCCATCGCGCTAACTCCCGCGGAGTCACCTAGTGCAG”, the binding signal was 8250 fluorescence intensity (a.u.).

For the sequence “GCTTTCCATTCTGATTTTGTCCTTTTCACCTACCAAAACGCGGAGTCACCTAGTGCAG”, the binding signal was 8260 fluorescence intensity (a.u.).

On to “ACCCGTTTGGATCGCACTGACTCGCTGACCATCACTGTGACGGAGTCACCTAGTGCAG”, for which the binding signal is 9110 fluorescence intensity (a.u.).

Turning to “GATGTTCTTGGATGATTATTATGTGATTTTGTGTTGATTGCGGAGTCACCTAGTGCAG”, the binding signal was 9010 fluorescence intensity (a.u.).

For the sequence “ACCATCACTTTTACTCTCTTTCTGCCTTAAAATCTCAATACGGAGTCACCTAGTGCAG”, the binding signal is 8590 fluorescence intensity (a.u.).

With “TGCTGTTCTTGTACTTGTACAGTTTGGATTGTGGTTTTATCGGAGTCACCTAGTGCAG”, the binding signal is 10400 fluorescence intensity (a.u.).

Take “GTCGCCCTGAATTTCACCTGCATCCGCCCGCTTGTGACGTCGGAGTCACCTAGTGCAG”: the binding signal is 10100 fluorescence intensity (a.u.).

As for “GGGAGGGCAACTGAAGAGGAGTGGCGAGGGAGGGCTTTTGCGGAGTCACCTAGTGCAG”, the binding signal was 12200 fluorescence intensity (a.u.).

“ACGGCACTATATAAACCCATCTTAACGACACCTGATTAGCCGGAGTCACCTAGTGCAG”: the binding signal was 9100 fluorescence intensity (a.u.).

“ATCTCTCTCTCTCTCTCTCTCTCTCTCCGTGTCGTCGGGCCGGAGTCACCTAGTGCAG”: the binding signal is 8430 fluorescence intensity (a.u.).

With “ATATCTCTATTCTATGCATTAGTCATACATGATTTTGAATCGGAGTCACCTAGTGCAG”, the binding signal is 8370 fluorescence intensity (a.u.).

As to “TTTCAGGTCGACTTCCCCAGCTTGAACCTGACTTGAATCACGGAGTCACCTAGTGCAG”, the binding signal is 8780 fluorescence intensity (a.u.).

Take “CGCCTCCGATCCCACAGTCTCTCTCTCTCTCTCTCTCTCTCGGAGTCACCTAGTGCAG”: the binding signal is 8350 fluorescence intensity (a.u.).

As for “CCCCGGCGCCCCGCTTCTACCCTCTCCCGGCGACGCCTTGCGGAGTCACCTAGTGCAG”, the binding signal is 9420 fluorescence intensity (a.u.).

For “GGGTTGGTCCGCGTTCTTGCCTCCTGGTTGGCCGATGTTTCGGAGTCACCTAGTGCAG”, the binding signal was 15700 fluorescence intensity (a.u.).

With “AAATATCCTGGCCTTAAAATTTCTGCTCTTTTGCTTTGTCCGGAGTCACCTAGTGCAG”, the binding signal was 8620 fluorescence intensity (a.u.).

As for “CCCGCCCGAGCACCGGCGGCCCTTCGTTTCTCCGGCACCTCGGAGTCACCTAGTGCAG”, the binding signal is 8770 fluorescence intensity (a.u.).

For “ATGGAATTTTGTCTTCCCTAATCGGACGGCTACTCGCGTCCGGAGTCACCTAGTGCAG”, the binding signal is 8090 fluorescence intensity (a.u.).

The record behind these values is PMC7819943, “Rice protein-binding microarrays: a tool to detect cis-acting elements near promoter regions in rice”.
